Results are given in words; binding and its absence hold for the method and conditions named. For part of these data: Binding seen in cells or lysates may run through a third protein. Some binding calls cover weakened binding; strength is not graded here.

Chains of the proteins cited; added tags and fusions are not shown. Lines headed by an entry give the natural chain unless they say otherwise; changes in a name come on top. A line that says so, or that is headed by a name, gives the form on record, which may keep a tag or linker. Residues count along the entry.
UniProt Q5S007: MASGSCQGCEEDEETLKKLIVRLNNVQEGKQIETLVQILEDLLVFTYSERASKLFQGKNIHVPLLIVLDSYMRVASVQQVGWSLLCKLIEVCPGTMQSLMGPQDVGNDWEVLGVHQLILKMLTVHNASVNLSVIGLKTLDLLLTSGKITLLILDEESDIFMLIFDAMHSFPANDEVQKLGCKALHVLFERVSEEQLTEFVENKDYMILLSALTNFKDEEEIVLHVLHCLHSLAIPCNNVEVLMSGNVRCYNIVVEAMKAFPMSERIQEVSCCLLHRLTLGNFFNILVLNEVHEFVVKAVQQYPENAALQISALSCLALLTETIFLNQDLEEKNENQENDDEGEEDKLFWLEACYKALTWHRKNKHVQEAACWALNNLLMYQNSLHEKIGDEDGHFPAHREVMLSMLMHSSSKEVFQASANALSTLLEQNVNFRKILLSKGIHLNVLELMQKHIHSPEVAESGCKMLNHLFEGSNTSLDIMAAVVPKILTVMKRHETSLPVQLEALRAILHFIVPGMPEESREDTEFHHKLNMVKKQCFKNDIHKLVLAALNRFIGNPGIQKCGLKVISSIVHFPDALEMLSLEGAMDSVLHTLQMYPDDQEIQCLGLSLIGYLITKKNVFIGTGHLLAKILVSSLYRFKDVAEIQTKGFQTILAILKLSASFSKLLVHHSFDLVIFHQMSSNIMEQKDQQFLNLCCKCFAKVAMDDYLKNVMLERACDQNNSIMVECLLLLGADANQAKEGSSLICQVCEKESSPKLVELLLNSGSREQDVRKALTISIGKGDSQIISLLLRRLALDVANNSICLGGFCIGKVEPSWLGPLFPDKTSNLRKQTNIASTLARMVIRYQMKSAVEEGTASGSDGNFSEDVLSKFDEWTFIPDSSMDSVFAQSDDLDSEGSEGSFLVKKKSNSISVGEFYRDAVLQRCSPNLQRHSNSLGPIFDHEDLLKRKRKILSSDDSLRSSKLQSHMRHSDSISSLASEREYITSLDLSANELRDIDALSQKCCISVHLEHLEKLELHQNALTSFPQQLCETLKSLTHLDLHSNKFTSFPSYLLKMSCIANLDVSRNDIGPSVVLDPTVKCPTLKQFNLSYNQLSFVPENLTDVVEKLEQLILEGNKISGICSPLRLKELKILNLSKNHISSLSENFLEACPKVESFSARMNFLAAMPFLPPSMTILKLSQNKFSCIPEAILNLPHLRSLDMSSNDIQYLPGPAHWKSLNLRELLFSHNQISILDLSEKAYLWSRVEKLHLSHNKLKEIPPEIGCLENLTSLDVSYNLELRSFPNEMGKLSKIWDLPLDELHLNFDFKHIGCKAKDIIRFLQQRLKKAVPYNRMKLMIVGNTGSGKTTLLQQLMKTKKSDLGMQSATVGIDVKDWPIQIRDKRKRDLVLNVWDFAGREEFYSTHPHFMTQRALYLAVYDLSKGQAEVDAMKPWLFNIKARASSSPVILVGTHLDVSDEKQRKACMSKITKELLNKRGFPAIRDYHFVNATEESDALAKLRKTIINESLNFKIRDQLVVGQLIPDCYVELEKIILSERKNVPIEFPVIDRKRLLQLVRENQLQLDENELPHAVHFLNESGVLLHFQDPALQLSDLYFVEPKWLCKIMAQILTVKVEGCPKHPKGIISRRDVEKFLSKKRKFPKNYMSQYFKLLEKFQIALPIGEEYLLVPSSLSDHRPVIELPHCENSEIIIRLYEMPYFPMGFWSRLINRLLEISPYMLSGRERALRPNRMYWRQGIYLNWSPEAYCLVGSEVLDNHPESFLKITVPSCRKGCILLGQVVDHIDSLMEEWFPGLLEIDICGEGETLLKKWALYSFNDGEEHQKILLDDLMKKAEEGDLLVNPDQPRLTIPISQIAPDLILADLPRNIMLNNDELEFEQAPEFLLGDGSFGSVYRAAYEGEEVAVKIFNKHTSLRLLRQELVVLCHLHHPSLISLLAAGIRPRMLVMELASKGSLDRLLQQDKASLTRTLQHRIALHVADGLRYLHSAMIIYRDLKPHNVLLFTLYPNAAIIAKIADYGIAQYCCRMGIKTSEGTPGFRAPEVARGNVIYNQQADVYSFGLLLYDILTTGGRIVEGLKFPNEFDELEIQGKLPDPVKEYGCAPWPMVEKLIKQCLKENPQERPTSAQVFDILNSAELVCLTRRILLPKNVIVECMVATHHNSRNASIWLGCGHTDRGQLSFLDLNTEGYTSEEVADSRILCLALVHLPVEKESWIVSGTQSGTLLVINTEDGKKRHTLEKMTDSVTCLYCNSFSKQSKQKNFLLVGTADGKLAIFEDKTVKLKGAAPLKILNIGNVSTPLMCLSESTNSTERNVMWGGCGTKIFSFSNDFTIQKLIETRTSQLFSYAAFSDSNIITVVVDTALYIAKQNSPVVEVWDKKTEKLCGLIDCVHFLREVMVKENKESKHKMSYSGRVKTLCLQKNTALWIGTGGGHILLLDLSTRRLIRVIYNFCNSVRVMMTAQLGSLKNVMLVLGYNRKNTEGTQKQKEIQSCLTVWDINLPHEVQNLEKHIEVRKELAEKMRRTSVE
Flag‐tagged ROC domain of LRRK2: residues 1328-1511 of Q5S007
Flag‐tagged COR domain of LRRK2: residues 1546-1740 of Q5S007
UniProt Q5S006: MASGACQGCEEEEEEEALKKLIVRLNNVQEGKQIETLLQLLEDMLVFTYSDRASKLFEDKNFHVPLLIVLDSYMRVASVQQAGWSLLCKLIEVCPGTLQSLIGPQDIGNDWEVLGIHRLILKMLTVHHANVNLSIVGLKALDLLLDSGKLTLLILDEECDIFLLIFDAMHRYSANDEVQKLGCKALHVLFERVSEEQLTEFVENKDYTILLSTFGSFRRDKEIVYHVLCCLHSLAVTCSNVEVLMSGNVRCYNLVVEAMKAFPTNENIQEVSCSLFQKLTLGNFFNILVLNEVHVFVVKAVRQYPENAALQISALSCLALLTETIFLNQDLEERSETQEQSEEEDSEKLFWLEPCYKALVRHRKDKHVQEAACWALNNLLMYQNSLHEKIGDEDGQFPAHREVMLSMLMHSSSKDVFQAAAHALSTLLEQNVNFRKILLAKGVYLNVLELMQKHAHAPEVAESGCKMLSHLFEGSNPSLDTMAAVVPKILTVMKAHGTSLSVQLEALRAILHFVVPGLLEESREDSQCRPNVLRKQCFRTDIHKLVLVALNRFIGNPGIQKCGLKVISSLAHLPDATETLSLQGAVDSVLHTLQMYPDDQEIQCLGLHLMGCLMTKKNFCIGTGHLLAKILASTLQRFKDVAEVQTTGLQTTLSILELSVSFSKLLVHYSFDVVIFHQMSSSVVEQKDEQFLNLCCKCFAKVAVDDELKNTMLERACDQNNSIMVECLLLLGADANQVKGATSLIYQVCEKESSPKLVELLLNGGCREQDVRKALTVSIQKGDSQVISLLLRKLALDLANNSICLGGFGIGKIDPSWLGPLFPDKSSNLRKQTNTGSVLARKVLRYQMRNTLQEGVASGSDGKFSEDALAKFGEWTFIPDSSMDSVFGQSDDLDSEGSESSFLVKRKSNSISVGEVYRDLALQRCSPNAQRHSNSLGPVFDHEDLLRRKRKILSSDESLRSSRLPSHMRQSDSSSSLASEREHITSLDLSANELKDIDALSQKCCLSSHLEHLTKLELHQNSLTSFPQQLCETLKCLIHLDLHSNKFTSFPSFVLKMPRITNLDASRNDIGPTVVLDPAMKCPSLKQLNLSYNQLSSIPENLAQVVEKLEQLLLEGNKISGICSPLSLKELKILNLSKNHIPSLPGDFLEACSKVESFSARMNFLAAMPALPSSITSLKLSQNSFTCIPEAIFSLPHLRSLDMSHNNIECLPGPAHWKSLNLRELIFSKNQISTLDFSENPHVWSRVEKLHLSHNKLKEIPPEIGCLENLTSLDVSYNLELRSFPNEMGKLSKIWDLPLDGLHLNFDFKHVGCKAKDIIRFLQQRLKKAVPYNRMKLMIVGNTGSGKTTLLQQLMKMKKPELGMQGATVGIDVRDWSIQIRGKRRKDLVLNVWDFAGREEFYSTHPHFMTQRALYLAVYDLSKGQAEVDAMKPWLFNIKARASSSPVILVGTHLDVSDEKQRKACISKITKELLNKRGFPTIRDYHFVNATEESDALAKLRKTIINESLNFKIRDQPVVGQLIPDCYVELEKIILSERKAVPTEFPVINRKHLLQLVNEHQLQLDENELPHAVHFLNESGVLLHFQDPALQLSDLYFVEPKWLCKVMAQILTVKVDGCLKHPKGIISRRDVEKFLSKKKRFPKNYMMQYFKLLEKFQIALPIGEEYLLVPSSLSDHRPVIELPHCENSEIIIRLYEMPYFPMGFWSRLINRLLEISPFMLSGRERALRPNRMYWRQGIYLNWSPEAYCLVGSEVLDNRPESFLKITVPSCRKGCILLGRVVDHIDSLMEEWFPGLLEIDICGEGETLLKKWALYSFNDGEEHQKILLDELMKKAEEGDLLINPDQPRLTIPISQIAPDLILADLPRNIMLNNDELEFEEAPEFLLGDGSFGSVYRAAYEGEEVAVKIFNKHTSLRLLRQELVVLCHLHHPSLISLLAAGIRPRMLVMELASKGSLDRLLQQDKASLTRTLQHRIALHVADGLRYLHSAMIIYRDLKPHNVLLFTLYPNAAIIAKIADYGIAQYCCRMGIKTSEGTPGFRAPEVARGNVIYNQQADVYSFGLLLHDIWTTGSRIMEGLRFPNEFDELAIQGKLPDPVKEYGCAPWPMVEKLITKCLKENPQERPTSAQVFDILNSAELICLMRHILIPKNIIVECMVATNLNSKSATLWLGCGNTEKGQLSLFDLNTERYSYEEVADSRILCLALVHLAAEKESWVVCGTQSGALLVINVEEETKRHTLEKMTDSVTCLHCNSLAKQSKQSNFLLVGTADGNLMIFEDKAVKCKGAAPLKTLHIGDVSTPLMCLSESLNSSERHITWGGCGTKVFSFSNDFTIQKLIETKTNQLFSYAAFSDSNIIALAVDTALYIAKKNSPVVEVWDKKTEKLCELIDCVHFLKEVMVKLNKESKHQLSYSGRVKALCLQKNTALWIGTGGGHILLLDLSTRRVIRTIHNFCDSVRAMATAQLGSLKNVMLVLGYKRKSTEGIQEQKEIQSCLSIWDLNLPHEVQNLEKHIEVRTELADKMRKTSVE
UniProt Q13177: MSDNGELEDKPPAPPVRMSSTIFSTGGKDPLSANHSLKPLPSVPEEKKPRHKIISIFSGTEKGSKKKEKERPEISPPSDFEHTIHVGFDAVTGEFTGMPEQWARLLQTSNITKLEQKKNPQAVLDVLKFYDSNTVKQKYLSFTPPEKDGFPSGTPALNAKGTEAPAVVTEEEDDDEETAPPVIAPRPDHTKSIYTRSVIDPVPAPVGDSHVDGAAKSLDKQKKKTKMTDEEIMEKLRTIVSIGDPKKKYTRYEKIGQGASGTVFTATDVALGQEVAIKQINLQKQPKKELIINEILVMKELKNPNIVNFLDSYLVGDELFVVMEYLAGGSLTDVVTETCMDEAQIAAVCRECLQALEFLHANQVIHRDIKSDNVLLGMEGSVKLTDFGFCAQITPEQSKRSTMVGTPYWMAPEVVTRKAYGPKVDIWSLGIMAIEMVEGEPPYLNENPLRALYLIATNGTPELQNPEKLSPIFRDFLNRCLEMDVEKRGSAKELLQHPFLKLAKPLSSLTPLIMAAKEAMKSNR
UniProt O75914: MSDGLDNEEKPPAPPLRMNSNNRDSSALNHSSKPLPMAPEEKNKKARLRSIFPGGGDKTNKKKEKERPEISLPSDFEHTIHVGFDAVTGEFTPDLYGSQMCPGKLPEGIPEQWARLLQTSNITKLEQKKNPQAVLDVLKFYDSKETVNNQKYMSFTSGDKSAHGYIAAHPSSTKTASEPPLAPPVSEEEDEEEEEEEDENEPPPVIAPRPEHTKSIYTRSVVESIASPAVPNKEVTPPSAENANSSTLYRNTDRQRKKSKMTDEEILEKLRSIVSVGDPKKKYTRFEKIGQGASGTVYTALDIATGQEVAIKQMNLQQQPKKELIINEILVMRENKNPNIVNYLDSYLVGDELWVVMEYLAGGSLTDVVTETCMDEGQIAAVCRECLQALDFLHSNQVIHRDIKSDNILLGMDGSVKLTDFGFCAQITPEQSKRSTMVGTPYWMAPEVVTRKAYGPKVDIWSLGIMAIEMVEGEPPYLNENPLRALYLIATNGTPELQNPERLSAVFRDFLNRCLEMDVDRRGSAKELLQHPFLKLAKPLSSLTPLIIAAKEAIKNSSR

The target of one assay is 3xFlag‐LRRK2 wild type (UniProt Q5S007). Put plainly: co-IP; lysates of HEK293T cells co-transfected with Flag-LRRK2 and Myc-PAK6 or Myc-14-3-3; immunoprecipitation with anti-Flag or with anti-Myc; washes in lysis buffer (50 mM Tris pH 7.5, 1% Triton X-100) with 0.25 M NaCl; immunoblot. (In general: Immunoblotting shows a protein as a band on a membrane.)
Assay [1] has as its target 2xMyc‐PAK6 (p21‐activated kinase 6) (human) (UniProt Q9NQU5). The assay is described as above.
Assay [2] addresses Flag‐tagged COR domain of LRRK2 (UniProt Q5S007). Put plainly: co-IP; lysates of stable HEK293T cells over-expressing PAK6 and transfected with Flag-tagged full-length LRRK2 or LRRK2 fragments; immunoprecipitation with anti-Flag; immunoblot with anti-PAK6 and anti-Flag.
Assay [3] concerns the target Flag‐tagged ROC domain of LRRK2 (UniProt Q5S007). The description is as above.
Assay [4] addresses human 3xFlag‐PAK6 wild type, expressed in mouse striatum from rAAV2/7 (human) (UniProt Q9NQU5). In words: co-IP; lysates of mouse striatum injected with rAAVs encoding 3xFlag-PAK6 or 3xFlag-GFP; immunoprecipitation with anti-Flag; immunoblot with anti-Flag and anti-LRRK2 (MJFF2).
Assay [5] concerns the target endogenous LRRK2 of mouse brain (mouse (endogenous in brain)) (UniProt Q5S006). Put plainly: co-IP; endogenous LRRK2 immunoprecipitated with anti-LRRK2 antibody from wild-type mouse brain lysates, LRRK2 knock-out brain lysates as control; immunoblot with anti-PAK6 and anti-LRRK2.
The target in assay [6] is T1, PAK6 kinase domain alone, spotted on the protoarray (UniProt Q9NQU5).
T1 sequence: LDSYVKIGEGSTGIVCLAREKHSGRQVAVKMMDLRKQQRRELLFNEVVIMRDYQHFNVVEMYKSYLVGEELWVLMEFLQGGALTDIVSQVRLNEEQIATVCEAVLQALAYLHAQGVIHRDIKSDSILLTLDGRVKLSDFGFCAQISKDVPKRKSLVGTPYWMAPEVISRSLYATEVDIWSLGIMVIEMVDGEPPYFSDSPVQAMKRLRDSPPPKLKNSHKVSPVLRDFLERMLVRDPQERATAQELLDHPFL
In words: peptide or protein array; protoarrays probed with purified full-length LRRK2 alone, with GDP or with GppCp; Z-score of 3 (3 standard deviations from background) as cutoff for candidate interactions; both purified.

Assay [7] concerns the target T2, cyclin G‐associated kinase (GAK) spotted on the protoarray (UniProt O14976).
T2 sequence: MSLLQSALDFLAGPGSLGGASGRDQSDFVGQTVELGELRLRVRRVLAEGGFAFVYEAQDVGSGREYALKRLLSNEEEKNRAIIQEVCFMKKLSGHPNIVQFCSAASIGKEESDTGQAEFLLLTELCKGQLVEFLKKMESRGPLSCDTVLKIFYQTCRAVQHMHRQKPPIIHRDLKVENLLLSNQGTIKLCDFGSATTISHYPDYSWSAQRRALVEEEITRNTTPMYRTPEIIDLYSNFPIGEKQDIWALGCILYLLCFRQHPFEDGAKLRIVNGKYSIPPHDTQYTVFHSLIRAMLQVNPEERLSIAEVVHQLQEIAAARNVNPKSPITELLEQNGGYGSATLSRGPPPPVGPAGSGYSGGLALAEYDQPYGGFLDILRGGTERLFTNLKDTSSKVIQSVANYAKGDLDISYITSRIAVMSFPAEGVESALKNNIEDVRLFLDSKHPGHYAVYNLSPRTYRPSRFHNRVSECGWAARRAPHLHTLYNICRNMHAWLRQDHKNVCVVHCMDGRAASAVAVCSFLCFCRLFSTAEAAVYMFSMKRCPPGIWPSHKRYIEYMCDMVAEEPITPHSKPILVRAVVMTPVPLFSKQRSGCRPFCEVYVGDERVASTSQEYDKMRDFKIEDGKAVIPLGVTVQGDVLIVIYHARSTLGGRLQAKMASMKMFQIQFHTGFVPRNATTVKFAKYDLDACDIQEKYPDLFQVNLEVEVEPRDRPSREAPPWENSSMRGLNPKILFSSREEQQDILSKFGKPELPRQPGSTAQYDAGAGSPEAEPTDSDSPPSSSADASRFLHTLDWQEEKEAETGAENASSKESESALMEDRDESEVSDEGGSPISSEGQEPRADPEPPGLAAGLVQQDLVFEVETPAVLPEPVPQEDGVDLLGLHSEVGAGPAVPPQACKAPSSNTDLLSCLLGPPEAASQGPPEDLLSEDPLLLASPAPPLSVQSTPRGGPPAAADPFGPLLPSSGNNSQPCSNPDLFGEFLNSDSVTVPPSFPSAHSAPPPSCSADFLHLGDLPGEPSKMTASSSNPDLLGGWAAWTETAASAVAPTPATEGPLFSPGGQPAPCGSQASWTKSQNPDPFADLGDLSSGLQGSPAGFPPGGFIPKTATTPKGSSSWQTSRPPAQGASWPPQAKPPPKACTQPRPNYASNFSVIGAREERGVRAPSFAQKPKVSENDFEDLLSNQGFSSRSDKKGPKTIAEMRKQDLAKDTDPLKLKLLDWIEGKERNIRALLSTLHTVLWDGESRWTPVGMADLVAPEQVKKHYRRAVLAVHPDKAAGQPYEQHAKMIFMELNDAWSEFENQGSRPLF
The description is as above.

The target in assay [8] is PAK2 spotted on the protoarray (UniProt Q13177). The assay is described as above.
Assay [9] addresses full‐length PAK6 spotted on the protoarray (UniProt Q9NQU5). The description is as above.
The target of assay [10] is PAK3 spotted on the protoarray (UniProt O75914). The assay is described as above.

Take “2xMyc‐PAK6 (p21‐activated kinase 6) (from UniProt Q9NQU5 1-681)”: the binding result with 3xFlag‐LRRK2 wild type is listed as “binds”.

As for “3xFlag‐LRRK2 wild type (from UniProt Q5S007 1-2527)”, the binding entry in [1] is reported as “binds”.

“PAK6 wild type, over‐expressed in stable HEK293T cells (from UniProt Q9NQU5 1-681)”: the binding entry in assay [2] is “no binding”; in [3] it was “binds”.

In the case of “endogenous LRRK2 of mouse brain (from UniProt Q5S006 1-2527)”, in [4], the binding entry is on record as “binds”.

Consider “endogenous PAK6 of mouse brain (from UniProt Q3ULB5 1-682)”, for which the binding result in [5] is “binds”.

On to “purified full‐length LRRK2 (leucine‐rich repeat kinase 2), probe of the protoarrays (from UniProt Q5S007 1-2527)”, for which the binding result in [6] is reported as “no binding”; in assay [7] it was “binds”; in [8] it was “no binding (tested: Z score below the cutoff of 3)”; in assay [9], “binds”; in assay [10] it was “no binding (tested: Z score below the cutoff of 3)”.

B1: Rab3A (protein, UniProt P63011 1-220)
chain: MASATDSRYGQKESSDQNFDYMFKILIIGNSSVGKTSFLFRYADDSFTPAFVSTVGIDFKVKTIYRNDKRIKLQIWDTAGQERYRTITTAYYRGAMGFILMYDITNEESFNAVQDWSTQIKTYSWDNAQVLLVGNKCDMEDERVVSSERGRQLADHLGFEFFEASAKDNINVKQTFERLVDVICEKMSESLDTADPAVTGAKQGPQLTDQQAPPHQDCAC
Consider B1, for which the binding result in assay [5] is listed as “no binding”.

The values are drawn from PMC4715492.
